For one molecule, binding results are on record in doi:10.1101/2023.05.08.539811.

Results are given in words; binding and its absence hold for the method and conditions named.

The experiment addresses full-length human GDAP1 (ganglioside-induced differentiation-associated protein 1) (human) (UniProt Q8TB36). The experiment can be described thus: SEC-SAXS.

B1: full-length human GDAP1 (ganglioside-induced differentiation-associated protein 1) (protein, UniProt Q8TB36 1-358)
chain: MAERQEEQRGSPPLRAEGKADAEVKLILYHWTHSFSSQKVRLVIAEKALKCEEHDVSLPLSEHNEPWFMRLNSTGEVPVLIHGENIICEATQIIDYLEQTFLDERTPRLMPDKESMYYPRVQHYRELLDSLPMDAYTHGCILHPELTVDSMIPAYATTRIRSQIGNTESELKKLAEENPDLQEAYIAKQKRLKSKLLDHDNVKYLKKILDELEKVLDQVETELQRRNEETPEEGQQPWLCGESFTLADVSLAVTLHRLKFLGFARRNWGNGKRPNLETYYERVLKRKTFNKVLGHVNNILISAVLPTAFRVAKKRAPKVLGTTLVVGLLAGVGYFAFMLFRKRLGSMILAFRPRPNYF
For B1, the binding result is given as “no binding”.
